Assay [1] has as its target T1, histone acetyl transferase ELO3 (UniProt Q93ZR1).
T1 sequence (looked up): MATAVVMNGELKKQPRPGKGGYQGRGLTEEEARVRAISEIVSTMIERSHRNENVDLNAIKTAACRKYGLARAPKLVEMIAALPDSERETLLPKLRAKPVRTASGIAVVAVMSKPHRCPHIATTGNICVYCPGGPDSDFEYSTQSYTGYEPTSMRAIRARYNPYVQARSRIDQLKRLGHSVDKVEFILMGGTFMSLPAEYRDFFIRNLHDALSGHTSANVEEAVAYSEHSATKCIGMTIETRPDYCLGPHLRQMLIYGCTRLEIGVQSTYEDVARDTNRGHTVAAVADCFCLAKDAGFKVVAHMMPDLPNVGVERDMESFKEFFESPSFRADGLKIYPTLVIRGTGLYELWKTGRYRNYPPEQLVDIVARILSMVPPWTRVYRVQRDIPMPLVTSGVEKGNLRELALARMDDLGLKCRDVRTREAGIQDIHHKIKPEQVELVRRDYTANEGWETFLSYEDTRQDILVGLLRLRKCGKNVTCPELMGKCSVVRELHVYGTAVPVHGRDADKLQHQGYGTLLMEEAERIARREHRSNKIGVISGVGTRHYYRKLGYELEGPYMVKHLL
Briefly: in vitro interaction (FIG. 8G).

Assay [2] addresses T2, Rpb3 sub-unit from RNA Polymerase II (UniProt Q39211).
T2 sequence (looked up): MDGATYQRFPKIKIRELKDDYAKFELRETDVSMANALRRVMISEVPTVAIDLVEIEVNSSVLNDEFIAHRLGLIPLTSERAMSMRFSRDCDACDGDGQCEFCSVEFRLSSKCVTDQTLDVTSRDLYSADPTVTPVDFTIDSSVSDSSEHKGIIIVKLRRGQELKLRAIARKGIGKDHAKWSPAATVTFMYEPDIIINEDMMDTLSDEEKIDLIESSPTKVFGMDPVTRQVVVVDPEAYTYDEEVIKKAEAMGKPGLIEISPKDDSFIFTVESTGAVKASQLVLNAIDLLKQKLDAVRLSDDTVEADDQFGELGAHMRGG
Briefly: in vitro pull-down (FIG. 8A).

The target in assay [3] is T3, Rpb3 sub-unit from RNA Polymerase II fused to split YFP (UniProt Q39211).
T3 sequence (looked up): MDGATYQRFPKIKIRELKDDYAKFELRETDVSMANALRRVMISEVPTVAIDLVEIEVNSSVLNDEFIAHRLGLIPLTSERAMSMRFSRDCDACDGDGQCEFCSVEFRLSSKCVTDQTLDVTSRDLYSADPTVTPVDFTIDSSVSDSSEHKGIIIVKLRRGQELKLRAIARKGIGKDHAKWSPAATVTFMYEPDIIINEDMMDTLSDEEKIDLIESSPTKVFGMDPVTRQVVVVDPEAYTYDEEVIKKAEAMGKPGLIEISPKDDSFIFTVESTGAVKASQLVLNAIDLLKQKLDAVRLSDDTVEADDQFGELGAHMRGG
Kind of assay: BiFC, split YFP (FIG. 8B).

Assay [4] has as its target T4, IYO fused to split YFP (nYFP or cYFP) (Arabidopsis thaliana, UniProt Q8GYU3 1-1465).
T4 construct: BiFC construct expressed in Nicotiana benthamiana leaf epidermal cells; The position of the YFP half varied between combinations, so the order of the parts is not fixed; also called split YFP fused to IYO; not shown: nYFP or cYFP half of split YFP, fused at the N- or C-terminus (different combinations were used)
T4 sequence: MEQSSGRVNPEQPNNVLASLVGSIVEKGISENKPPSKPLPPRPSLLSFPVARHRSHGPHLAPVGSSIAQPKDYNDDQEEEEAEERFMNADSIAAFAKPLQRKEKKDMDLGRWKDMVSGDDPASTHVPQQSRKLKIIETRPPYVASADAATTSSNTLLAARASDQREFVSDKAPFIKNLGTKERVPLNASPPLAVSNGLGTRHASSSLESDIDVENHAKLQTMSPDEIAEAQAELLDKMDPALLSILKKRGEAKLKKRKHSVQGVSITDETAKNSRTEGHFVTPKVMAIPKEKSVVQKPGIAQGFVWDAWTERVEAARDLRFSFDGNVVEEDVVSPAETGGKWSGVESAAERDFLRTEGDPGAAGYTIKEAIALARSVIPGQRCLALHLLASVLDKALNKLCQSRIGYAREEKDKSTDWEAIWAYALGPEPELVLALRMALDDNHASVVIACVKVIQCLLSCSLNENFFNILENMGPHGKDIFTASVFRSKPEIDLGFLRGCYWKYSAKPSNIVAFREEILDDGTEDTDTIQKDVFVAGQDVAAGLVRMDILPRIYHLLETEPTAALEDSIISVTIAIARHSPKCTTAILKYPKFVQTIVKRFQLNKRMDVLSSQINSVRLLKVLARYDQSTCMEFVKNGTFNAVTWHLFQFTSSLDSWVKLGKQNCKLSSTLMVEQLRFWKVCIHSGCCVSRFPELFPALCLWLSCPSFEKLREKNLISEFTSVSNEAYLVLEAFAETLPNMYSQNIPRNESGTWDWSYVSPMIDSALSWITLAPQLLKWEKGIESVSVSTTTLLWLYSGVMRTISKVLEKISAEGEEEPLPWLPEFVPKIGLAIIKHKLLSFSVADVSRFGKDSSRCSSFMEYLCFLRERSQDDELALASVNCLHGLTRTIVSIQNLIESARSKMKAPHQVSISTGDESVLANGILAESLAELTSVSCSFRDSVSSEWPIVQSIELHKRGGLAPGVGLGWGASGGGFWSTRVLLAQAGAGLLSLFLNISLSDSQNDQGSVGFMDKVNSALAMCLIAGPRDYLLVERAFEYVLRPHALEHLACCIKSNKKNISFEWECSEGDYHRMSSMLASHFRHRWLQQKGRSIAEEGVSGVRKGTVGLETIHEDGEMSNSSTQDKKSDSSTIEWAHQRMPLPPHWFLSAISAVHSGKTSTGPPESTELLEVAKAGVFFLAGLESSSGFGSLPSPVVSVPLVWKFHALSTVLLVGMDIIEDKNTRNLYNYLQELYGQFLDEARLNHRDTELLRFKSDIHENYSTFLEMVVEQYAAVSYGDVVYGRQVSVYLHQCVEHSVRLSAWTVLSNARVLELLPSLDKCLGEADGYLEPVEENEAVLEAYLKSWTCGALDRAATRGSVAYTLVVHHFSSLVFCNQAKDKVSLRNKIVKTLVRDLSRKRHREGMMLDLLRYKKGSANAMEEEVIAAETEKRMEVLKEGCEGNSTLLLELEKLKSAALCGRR
Kind of assay: interaction test with truncated AtRTR1 (method not named in this paragraph).

The target in assay [5] is T4, IYO fused to split YFP (nYFP or cYFP). Briefly: BiFC context, truncated AtRTR1. The text has this: Applicants tested for the in vivo interaction between IYO and AtRTR1 through a bimolecular fluorescence complementation assay in epidermal cells from Nicotiana benthamiana leaves.

These are yes or no findings as the source states them, for the method shown. For some assays here: In cells and extracts the contact can be indirect. Some binding calls cover weakened binding; strength is not graded here. For some assays here: Sequences can lack the tags named with a protein.

B1: IYO protein (AtMINIYO, Arabidopsis thaliana MINIYO, At4g38440) (protein)
chain: MEQSSGRVNPEQPNNVLASLVGSIVEKGISENKPPSKPLPPRPSLLSFPVARHRSHGPHLAPVGSSIAQPKDYNDDQEEEEAEERFMNADSIAAFAKPLQRKEKKDMDLGRWKDMVSGDDPASTHVPQQSRKLKIIETRPPYVASADAATTSSNTLLAARASDQREFVSDKAPFIKNLGTKERVPLNASPPLAVSNGLGTRHASSSLESDIDVENHAKLQTMSPDEIAEAQAELLDKMDPALLSILKKRGEAKLKKRKHSVQGVSITDETAKNSRTEGHFVTPKVMAIPKEKSVVQKPGIAQGFVWDAWTERVEAARDLRFSFDGNVVEEDVVSPAETGGKWSGVESAAERDFLRTEGDPGAAGYTIKEAIALARSVIPGQRCLALHLLASVLDKALNKLCQSRIGYAREEKDKSTDWEAIWAYALGPEPELVLALRMALDDNHASVVIACVKVIQCLLSCSLNENFFNILENMGPHGKDIFTASVFRSKPEIDLGFLRGCYWKYSAKPSNIVAFREEILDDGTEDTDTIQKDVFVAGQDVAAGLVRMDILPRIYHLLETEPTAALEDSIISVTIAIARHSPKCTTAILKYPKFVQTIVKRFQLNKRMDVLSSQINSVRLLKVLARYDQSTCMEFVKNGTFNAVTWHLFQFTSSLDSWVKLGKQNCKLSSTLMVEQLRFWKVCIHSGCCVSRFPELFPALCLWLSCPSFEKLREKNLISEFTSVSNEAYLVLEAFAETLPNMYSQNIPRNESGTWDWSYVSPMIDSALSWITLAPQLLKWEKGIESVSVSTTTLLWLYSGVMRTISKVLEKISAEGEEEPLPWLPEFVPKIGLAIIKHKLLSFSVADVSRFGKDSSRCSSFMEYLCFLRERSQDDELALASVNCLHGLTRTIVSIQNLIESARSKMKAPHQVSISTGDESVLANGILAESLAELTSVSCSFRDSVSSEWPIVQSIELHKRGGLAPGVGLGWGASGGGFWSTRVLLAQAGAGLLSLFLNISLSDSQNDQGSVGFMDKVNSALAMCLIAGPRDYLLVERAFEYVLRPHALEHLACCIKSNKKNISFEWECSEGDYHRMSSMLASHFRHRWLQQKGRSIAEEGVSGVRKGTVGLETIHEDGEMSNSSTQDKKSDSSTIEWAHQRMPLPPHWFLSAISAVHSGKTSTGPPESTELLEVAKAGVFFLAGLESSSGFGSLPSPVVSVPLVWKFHALSTVLLVGMDIIEDKNTRNLYNYLQELYGQFLDEARLNHRDTELLRFKSDIHENYSTFLEMVVEQYAAVSYGDVVYGRQVSVYLHQCVEHSVRLSAWTVLSNARVLELLPSLDKCLGEADGYLEPVEENEAVLEAYLKSWTCGALDRAATRGSVAYTLVVHHFSSLVFCNQAKDKVSLRNKIVKTLVRDLSRKRHREGMMLDLLRYKKGSANAMEEEVIAAETEKRMEVLKEGCEGNSTLLLELEKLKSAALCGRR
On to B1, for which the binding result in assay [1] and in assay [2] was “binds” throughout.

B2: IYO fused to split YFP (nYFP or cYFP) (protein, not shown: large carriers)
chain: MEQSSGRVNPEQPNNVLASLVGSIVEKGISENKPPSKPLPPRPSLLSFPVARHRSHGPHLAPVGSSIAQPKDYNDDQEEEEAEERFMNADSIAAFAKPLQRKEKKDMDLGRWKDMVSGDDPASTHVPQQSRKLKIIETRPPYVASADAATTSSNTLLAARASDQREFVSDKAPFIKNLGTKERVPLNASPPLAVSNGLGTRHASSSLESDIDVENHAKLQTMSPDEIAEAQAELLDKMDPALLSILKKRGEAKLKKRKHSVQGVSITDETAKNSRTEGHFVTPKVMAIPKEKSVVQKPGIAQGFVWDAWTERVEAARDLRFSFDGNVVEEDVVSPAETGGKWSGVESAAERDFLRTEGDPGAAGYTIKEAIALARSVIPGQRCLALHLLASVLDKALNKLCQSRIGYAREEKDKSTDWEAIWAYALGPEPELVLALRMALDDNHASVVIACVKVIQCLLSCSLNENFFNILENMGPHGKDIFTASVFRSKPEIDLGFLRGCYWKYSAKPSNIVAFREEILDDGTEDTDTIQKDVFVAGQDVAAGLVRMDILPRIYHLLETEPTAALEDSIISVTIAIARHSPKCTTAILKYPKFVQTIVKRFQLNKRMDVLSSQINSVRLLKVLARYDQSTCMEFVKNGTFNAVTWHLFQFTSSLDSWVKLGKQNCKLSSTLMVEQLRFWKVCIHSGCCVSRFPELFPALCLWLSCPSFEKLREKNLISEFTSVSNEAYLVLEAFAETLPNMYSQNIPRNESGTWDWSYVSPMIDSALSWITLAPQLLKWEKGIESVSVSTTTLLWLYSGVMRTISKVLEKISAEGEEEPLPWLPEFVPKIGLAIIKHKLLSFSVADVSRFGKDSSRCSSFMEYLCFLRERSQDDELALASVNCLHGLTRTIVSIQNLIESARSKMKAPHQVSISTGDESVLANGILAESLAELTSVSCSFRDSVSSEWPIVQSIELHKRGGLAPGVGLGWGASGGGFWSTRVLLAQAGAGLLSLFLNISLSDSQNDQGSVGFMDKVNSALAMCLIAGPRDYLLVERAFEYVLRPHALEHLACCIKSNKKNISFEWECSEGDYHRMSSMLASHFRHRWLQQKGRSIAEEGVSGVRKGTVGLETIHEDGEMSNSSTQDKKSDSSTIEWAHQRMPLPPHWFLSAISAVHSGKTSTGPPESTELLEVAKAGVFFLAGLESSSGFGSLPSPVVSVPLVWKFHALSTVLLVGMDIIEDKNTRNLYNYLQELYGQFLDEARLNHRDTELLRFKSDIHENYSTFLEMVVEQYAAVSYGDVVYGRQVSVYLHQCVEHSVRLSAWTVLSNARVLELLPSLDKCLGEADGYLEPVEENEAVLEAYLKSWTCGALDRAATRGSVAYTLVVHHFSSLVFCNQAKDKVSLRNKIVKTLVRDLSRKRHREGMMLDLLRYKKGSANAMEEEVIAAETEKRMEVLKEGCEGNSTLLLELEKLKSAALCGRR
In the case of B2, the binding entry in assay [3] is on record as “binds”.

B3: DUF408-containing N-terminal half of AtRTR1 (protein, not shown: large carriers)
chain: MAKDNEAIAINDAVHKLQLYMLENTTDQNQLFAARKLMSRSDYEDVVTERAIAKLCGYTLCQRFLPSDVSRRGKYRISLKDHKVYDLQETSKFCSAGCLIDSKTFSGSLQEARTLEFDSVKLNEILDLFGDSLEVKGSLDVNKDLDLSKLMIKENFGVRGEELSLEKWMGPSNAVEGYVPFDRSKSSNDSKATTQSNQEKHEMDFTSTVIMPDVNSVSKLPPQTKQASTVVESVDGKGKTVLKEQTVVPPTKKVSRFRREKEKEKKTFGVDGMGCAQEKTTVLPRKILSFCNEIEKDFKNFGFD
B3: the binding result in assay [4] and in assay [5] was “binds” in each case.
